# Data: US20240067734A1
# Protein sequences, listed by entry. Tags and fused reporters are not part of them. Lines headed by an entry give the natural chain unless they say otherwise; changes in a name come on top.
# UniProt P26718: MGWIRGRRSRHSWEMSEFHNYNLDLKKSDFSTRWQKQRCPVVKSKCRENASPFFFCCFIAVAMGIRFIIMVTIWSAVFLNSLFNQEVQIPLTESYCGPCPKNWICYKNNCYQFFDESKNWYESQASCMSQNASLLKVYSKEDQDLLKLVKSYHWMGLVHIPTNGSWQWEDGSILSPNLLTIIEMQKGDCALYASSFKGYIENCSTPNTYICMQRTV
# Residue numbers refer to the chain shown, from its start. No constants are given. Whether binding was seen depends on the method and setting. Some results given as binding are weak or reduced against the parent protein; the word gives no strength.
# B1: anti-NKG2D antibody clone 320 (antibody, V domains shown)
# VH: EVQLLESGGGLVQPGGSLRLSCATSGFTFSDYAMSWVRQAPGKGLEWVSYNSFSVGSTDYADSVKGRFTISRDNSKNTLYLQMNSLRAEDTAVYYCSKHSGNYYTGPFHYWGQGTLVTVSS
# VL: DIQLTQSPSFLSASVGDRVTITCRASQGISSYLAWYQQKPGKAPKLLIYAASSLESGVPSRFSGSGSGTDFTLTISSLQPEDFATYYCQQSYSTPITFGQGTRLEIK
# B2: anti-NKG2D antibody clone 018 (antibody, V domains shown)
# VH: QQLEQSGGGLVTPGGSLKVCCKASGFDFTTYWMTWVRQAPEKGLEWIGCIHGGDSGATYYANWVNGRFTLSRDIDQSTGCLQLNSLTAADTAMYYCARPGYPSWSKTFDLWGQGTMVTVSS
# VL: DIQMTQSPSSLSASVGDRVTITCQASQDISNALNWYQQKPGKAPKLLIYAASTLQSGVPSRFSGSGSGTDFTLTISSLQPEDFATYYCQHSNSFPLTFGGGTKVEIK
# B3: anti-NKG2D antibody clone 230 (antibody, V domains shown)
# VH: QQLEQSGGGLVKPGGSLELCCIASGFDFSTYWMTWVRQAPGKGLEWIGCIHGGGSGTTSYASWVNGRFTLSRDIDQSTGCLQLTSLTAADTAMYYCARPGYRSWSKTFDLWGQGTMVTVSS
# VL: B2 VL with S26N, T53S, T85A, H90Q, S91A, N92A
# B4: anti-NKG2D antibody clone 395 (antibody, V domains shown)
# VH: QEQLEQSGGGLVTPGGSLKLCCTASGFDFNTFWMTWVRQAPGKGLEWIGCIHGGSGSRDYASWVNGRFTLSRDIDQSTACLQVNSLTAADTAMYYCARPGYRSWSKTFDLWGQGTMVTVSS
# VL: B2 VL with Q24R, N31G, K45N, T53S, F71Y, H90Q, S91A
# B5: anti-NKG2D antibody clone 296 (antibody, V domains shown)
# VH: EVQLLESGGGLVQPGGSLRLSCAASGFTFSSYAMSWVRQAPGKGLEWVSAIGIGGGGTYYADSVKGRFTISRDNSKNTLYLQMNSLRAEDTAVYHCAKGASFDFINFFPYWGQGTLVTVSS
# VL: B2 VL with Q24R, D28G, A32D, N34A, T53S, H90Q, S91T, N92Y, F94T
# B6: anti-NKG2D antibody clone 001 (antibody, V domains shown)
# VH: B3 VH with K12T, E18K, A23G, S29N, G54S, T57S, S59Y, L83V, T84N
# VL: B2 VL with Q24R, N31E, A32S, T53S, F71Y, H90Q, S91A
# B7: anti-NKG2D antibody clone 013 (antibody, V domains shown)
# VH: EQSGGGAGGGLVKPGGSLELCCKASGFDFSIYWMSWVRQSPGKGLEWIGRIYGGSSDYTAYASWVNGRFTLSRDIDQSTGCLQLNSLTAADTAMYYCVRLNPSFSRSFDYWGQGTLVTVSS
# VL: DIQMTQSPSSVSASVGDRVTITCRASQGIFSWLVWYQQKPGKAPELLMYGASTLQSGVPSRFSGSGSGTDFTLTISSLQPEDFATYYCQQGYSTPYTFGQGTKVEIK
# Target: recombinant biotinylated human NKG2D (Example 5) (human) (UniProt P26718)
# Test: competition ELISA: biotinylated human NKG2D pre-incubated with the antibody, then added to plate-coated MIC-B (ECD FL MIC-B Fc avi), bound NKG2D detected with streptavidin-HRP; blocked ligand: MIC-B
row,binding,Binder
1,binds,B1
2,binds,B2
3,binds,B3
4,binds,B4
5,binds,B5
6,binds,B6

# Target: recombinant biotinylated human NKG2D (Example 5) (human) (UniProt P26718)
# Test: competition ELISA: biotinylated human NKG2D pre-incubated with the antibody, then added to plate-coated MIC-B (ECD FL MIC-B Fc avi), bound NKG2D detected with streptavidin-HRP; ligand MIC-B is not blocked
row,binding,Binder
1,binds,B7
